The values that follow come from PMC8881453, “Cryo-EM structure of translesion DNA synthesis polymerase ζ with a base pair mismatch” (Nature Communications, 2022).

Results are given in words; binding and its absence hold for the method and conditions named. Some binding calls cover weakened binding; strength is not graded here. Sequences can lack the tags named with a protein.

The assay deals with T1, Rev7, accessory subunit of DNA polymerase ζ (Polζ) (Saccharomyces cerevisiae), P38927.
T1 chain: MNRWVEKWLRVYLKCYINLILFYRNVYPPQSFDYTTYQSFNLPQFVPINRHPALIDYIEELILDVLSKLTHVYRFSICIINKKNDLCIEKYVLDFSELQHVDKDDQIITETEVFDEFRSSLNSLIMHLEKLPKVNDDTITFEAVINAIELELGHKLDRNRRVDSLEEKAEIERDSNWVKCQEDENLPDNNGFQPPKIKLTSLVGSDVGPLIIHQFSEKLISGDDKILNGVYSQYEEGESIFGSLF
The assay is described as follows: cryo-EM structure; Polζ holoenzyme incubated in a CaCl2 supplemented buffer with palindromic DNA (1.5 molar excess) with an A:C mismatch at the primer terminus, 1 mM dCTP; nominal resolution 3.05 Å; both purified. As to conditions: remark: other sources report otherwise.

B1: Rev7, accessory subunit of DNA polymerase ζ (Polζ) (natural protein, Saccharomyces cerevisiae, UniProt P38927 1-245, looked up)
chain: MNRWVEKWLRVYLKCYINLILFYRNVYPPQSFDYTTYQSFNLPQFVPINRHPALIDYIEELILDVLSKLTHVYRFSICIINKKNDLCIEKYVLDFSELQHVDKDDQIITETEVFDEFRSSLNSLIMHLEKLPKVNDDTITFEAVINAIELELGHKLDRNRRVDSLEEKAEIERDSNWVKCQEDENLPDNNGFQPPKIKLTSLVGSDVGPLIIHQFSEKLISGDDKILNGVYSQYEEGESIFGSLF
notes: Rev7, Saccharomyces cerevisiae, accessory subunit of Polζ, full-length (residues 1-245); Two copies (Rev7A and Rev7B) stand in the pentameric holoenzyme; also called Rev7B; source: expressed in yeast from plasmids pBJ1462 and pBJ1524, purified as the Polζ holoenzyme
On to B1, for which the binding entry was “binds”.
